# Measured values reported in PubChem BioAssay AID488837 (National Center for Advancing Translational Sciences (NCATS), 2010).
# The chains behind the UniProt entries cited, without tags or fusion partners.
# UniProt O00167, whole entry, looked up: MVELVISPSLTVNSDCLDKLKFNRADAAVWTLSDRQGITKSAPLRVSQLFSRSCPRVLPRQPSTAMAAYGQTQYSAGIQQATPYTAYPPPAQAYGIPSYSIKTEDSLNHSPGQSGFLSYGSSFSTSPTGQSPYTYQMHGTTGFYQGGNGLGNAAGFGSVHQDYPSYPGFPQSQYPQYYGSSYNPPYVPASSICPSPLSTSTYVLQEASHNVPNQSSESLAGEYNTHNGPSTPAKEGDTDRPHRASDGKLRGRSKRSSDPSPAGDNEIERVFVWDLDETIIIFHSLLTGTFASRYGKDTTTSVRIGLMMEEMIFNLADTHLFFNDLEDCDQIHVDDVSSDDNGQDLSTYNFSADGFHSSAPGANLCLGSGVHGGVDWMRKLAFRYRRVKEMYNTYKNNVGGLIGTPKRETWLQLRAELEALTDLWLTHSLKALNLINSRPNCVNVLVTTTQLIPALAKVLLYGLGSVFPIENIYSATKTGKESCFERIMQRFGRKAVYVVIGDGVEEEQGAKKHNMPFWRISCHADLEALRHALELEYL
# In all, about 330,000 compounds went through this assay and about 20 (0.006%) were called active. Inconclusive results, whose numbers are uncertain, are shown with a selection of clear calls. Calls come from the whole dose curve; as a rule, active = well fitted inhibition curve with a large enough effect; inconclusive = small, poorly fitted or top-dose-only effect, or effect the other way; inactive = flat fitted curve, though single readings scatter. Where the call is inconclusive, the potency comes from a doubtful curve fit.
# Target: Protein phosphatase EYA2 (Homo sapiens) (UniProt O00167)
# Test: qHTS Assay for Inhibitors of the Phosphatase Activity of Eya2
# Conditions: recombinant Eya2, OMFP fluorescence dephosphorylation (OMFP is methylfluorescein phosphate); activity, negative = inhibition: at 76.9 µM (top of the series) unless noted
# Outline: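 Eya2 (0.2 uM) preincubated 10 min at ambient with compound, then OMFP substrate added at 50 uM; 10 min reaction in 50 mM HEPES pH 7.5, 50 mM NaCl, 5 uM MgCl2, 0.05% BSA, 1 mM DTT. Fluorescence read at Ex 485/Em 525 nm.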
# % is set by controls: 0 for no effect and ±100 for the full control effect; potency is the fitted concentration of half-maximal effect.
SMILES,Potency,"activity, negative = inhibition"
COc1ccccc1OCCNC(=O)CC(NC(C)=O)c1ccccc1 (configuration not stated),"inconclusive: 100 µM [inhibitor, single point]",
Cc1nc(-c2ccccc2)sc1-c1nc(-c2ccncc2)ncc1S(=O)(=O)c1ccccc1,"inconclusive: 141 µM [inhibitor, single point]",
O=C(NCc1nc2ccccc2[nH]1)C1=C[C@@H](C2CCCCC2)C[C@@H](OCc2ccc(CO)cc2)O1,"inconclusive: 200 µM [inhibitor, partial curve, poor fit]",
COc1ccc(CN2C(=O)CCC(C(=O)O)C2c2ccccc2)cc1 (configuration not stated),"inconclusive: 31.6 µM [inhibitor, partial curve, poor fit]",
CN1CCN(CCNC(=O)c2ccc3nc(-c4ccc(F)cc4)c(-c4ccc(F)cc4)nc3c2)CC1,inactive,
CCN(CC(=O)Nc1ccccc1C(F)(F)F)C(=O)C1CC(=O)N(Cc2ccccc2)C1 (configuration not stated),inactive,
O=C(O)COc1ccccc1/C=N/NC(=O)c1cc(-c2ccc(F)cc2)nc2ccccc12,inactive,
Cc1cc(C)n(C(=O)COc2ccccc2[N+](=O)[O-])n1,"inconclusive: 8.91 µM [inhibitor, partial curve, poor fit]",
CC(=O)c1ccc(OCCCC(=O)NC2=NCCS2)cc1,"inconclusive: 28.2 µM [inhibitor, partial curve]",
Cc1ccc(C)c(NC(=S)N(CCN(C)C)C(C)c2ccccn2)c1 (configuration not stated),inactive,
CC(C)N(C(=O)CSc1nc(Cc2ccccc2)nc2ccccc12)C(C)C,"inconclusive: 20 µM [inhibitor, single point]",
Cc1nc2cc(C)c(C)cc2s1,inactive,
C[C@H](CO)N1C[C@H](C)[C@@H](CN(C)CC2CCCCC2)Oc2ccc(NC(=O)Cn3cnnn3)cc2C1=O,"inconclusive: 70.8 µM [inhibitor, single point]",
Nn1c(SC/C=C/c2ccccc2)nnc1-c1cccnc1,inactive,
CC(=O)Nc1cccc(C(=O)/C=C/c2ccc(N(C)C)cc2)c1,,inconclusive: 79.7% [activator]
CC(C)Cc1ccc(C(C)C(=O)Nc2ccccc2O)cc1 (configuration not stated),inactive,
CNC(=O)c1cc2cc(Cc3ccccc3Cl)ccc2oc1=O,"inconclusive: 100 µM [inhibitor, partial curve]",
CCCOc1ccc(CNC(=O)CCC(=O)n2ncc3cc(C)ccc32)cc1,"inconclusive: 20 µM [inhibitor, single point]",
COc1cc2[nH]c(C(=O)N(C)Cc3ccccc3)cc2c(OC)c1OC,"inconclusive: 89.1 µM [inhibitor, single point]",
CC(=O)c1sc2nc(-c3cccs3)cc(C(F)(F)F)c2c1N,inactive,
c1coc(-c2nnc(-c3ccco3)nn2)c1,inactive,
COC(=O)Cn1cc(/C=C/c2cc[n+](C)cc2)c2ccccc21,,inconclusive: 39.1% [activator]
O=C(c1ccc(F)cc1)N1CCC(C(=O)N(Cc2ccccc2)c2ccccc2)CC1,inactive,
COc1ccc(C(C(=O)NC2CCCC2)N(CC2CCCO2)C(=O)Cn2nnc(-c3ccc(C)o3)n2)cc1 (configuration not stated),"inconclusive: 79.4 µM [inhibitor, single point]",

SMILES,Potency,"activity, negative = inhibition"
COc1ccc(C(=O)COC(=O)c2nn(C)c(=O)c3ccccc23)c(OC)c1,"inconclusive: 112 µM [inhibitor, partial curve, poor fit]",
CCN(CCCCOC(=O)c1ccc(OC)c(OC)c1)C(C)Cc1ccc(OC)cc1 (configuration not stated),"inconclusive: 2510 µM [inhibitor, single point]",
O=C(OCc1ccccc1Cl)c1ccc(-n2cnnc2)cc1,inactive,
CC(OC(=O)CCN1C(=O)C2CC=CCC2C1=O)C(=O)c1ccc(F)cc1 (configuration not stated),"inconclusive: 100 µM [inhibitor, single point]",
Cc1ccc(NC(=O)CN(C)C(=O)Cn2nnc(-c3ccccc3)n2)cc1,"inconclusive: 79.4 µM [inhibitor, single point]",
COc1ccc(NC(=O)Nc2nnc(Cc3ccc(F)cc3)s2)cc1,"inconclusive: 31.6 µM [inhibitor, single point]",
CCn1cc(CN2CCN(CCC(C)C)C(CCO)C2)c2ccccc21 (configuration not stated),"inconclusive: 200 µM [inhibitor, single point]",
Cc1ccc(NC(=O)NNC(=O)c2cc3ccccc3cc2O)cc1,inactive,
Cc1ccc2nc(C)c(C(=O)NN=C3CCCCCC3)n2c1,inactive,
CCC(O)(c1ccccc1)C(CN1CCOCC1)c1ccccc1 (configuration not stated),"inconclusive: 63.1 µM [inhibitor, partial curve]",
Cc1cccc(C(=O)OCC(=O)NCCCc2ccccc2)c1O,"inconclusive: 22.4 µM [inhibitor, single point]",
CC1=NN(c2ccccc2)C(=O)/C1=C/C=C/c1ccc(N(C)C)cc1,"inconclusive: 25.1 µM [inhibitor, single point]",
O=C(CCNS(=O)(=O)c1cccs1)NCc1cccs1,inactive,
NC(=O)CC1C(=O)N(c2ccccc2)C(=S)N1NC(=O)c1ccccc1 (configuration not stated),"inconclusive: 100 µM [inhibitor, single point]",
COCCN(Cc1cc2ccc(C)cc2[nH]c1=O)S(=O)(=O)c1ccccc1,inactive,
COc1ccc(/C=C2\CCCc3c2nc2ccccc2c3C(=O)O)cc1OC,"inconclusive: 20 µM [activator, partial curve]",
Cc1ccc(S(=O)(=O)N2[C@@H](c3ccccc3F)C(C(=O)O)=CC[C@H]2c2ccc(Cl)c(Cl)c2)cc1,"inconclusive: 44.7 µM [inhibitor, single point]",
CCN1/C(=C/c2ccc3ccccc3[n+]2CCCS(=O)(=O)[O-])C=Cc2cc(C)ccc21,inactive,
Cn1nc(-c2ccc(Cl)cc2)cc1NC(=O)Nc1ccccc1,"inconclusive: 141 µM [inhibitor, partial curve, poor fit]",
N#CCSc1n[nH]c2nc3c(c(=O)n12)C1(CCCC1)Cc1ccccc1-3,inactive,
O=C(N/N=C/C(Cl)=C\c1ccccc1)c1cccs1,"inconclusive: 100 µM [inhibitor, partial curve]",
O=c1c2c(-c3ccccc3)csc2ncn1/N=C/c1ccc(O)c([N+](=O)[O-])c1,inactive,
Cc1cc(C(=O)COC(=O)c2cccc(O)c2)c(C)n1C1CC1,"inconclusive: 100 µM [inhibitor, single point]",
Cc1nn(C)c(Cl)c1CN1CCCC(CO)(Cc2cccc(Cl)c2)C1 (configuration not stated),"inconclusive: 100 µM [inhibitor, single point]",

# A second format for 16 compounds above:
SMILES | Potency | activity, negative = inhibition
CCN(CCCCOC(=O)c1ccc(OC)c(OC)c1)C(C)Cc1ccc(OC)cc1 (configuration not stated) | inconclusive: 2510 µM [inhibitor, single point] | 
O=C(OCc1ccccc1Cl)c1ccc(-n2cnnc2)cc1 | inactive | 
Cc1ccc(NC(=O)CN(C)C(=O)Cn2nnc(-c3ccccc3)n2)cc1 | inconclusive: 79.4 µM [inhibitor, single point] | 
COc1ccc(NC(=O)Nc2nnc(Cc3ccc(F)cc3)s2)cc1 | inconclusive: 31.6 µM [inhibitor, single point] | 
Cc1ccc(NC(=O)NNC(=O)c2cc3ccccc3cc2O)cc1 | inactive | 
Cc1ccc2nc(C)c(C(=O)NN=C3CCCCCC3)n2c1 | inactive | 
CCC(O)(c1ccccc1)C(CN1CCOCC1)c1ccccc1 (configuration not stated) | inconclusive: 63.1 µM [inhibitor, partial curve] | 
Cc1cccc(C(=O)OCC(=O)NCCCc2ccccc2)c1O | inconclusive: 22.4 µM [inhibitor, single point] | 
CC1=NN(c2ccccc2)C(=O)/C1=C/C=C/c1ccc(N(C)C)cc1 | inconclusive: 25.1 µM [inhibitor, single point] | 
O=C(CCNS(=O)(=O)c1cccs1)NCc1cccs1 | inactive | 
NC(=O)CC1C(=O)N(c2ccccc2)C(=S)N1NC(=O)c1ccccc1 (configuration not stated) | inconclusive: 100 µM [inhibitor, single point] | 
COCCN(Cc1cc2ccc(C)cc2[nH]c1=O)S(=O)(=O)c1ccccc1 | inactive | 
COc1ccc(/C=C2\CCCc3c2nc2ccccc2c3C(=O)O)cc1OC | inconclusive: 20 µM [activator, partial curve] | 
CCN1/C(=C/c2ccc3ccccc3[n+]2CCCS(=O)(=O)[O-])C=Cc2cc(C)ccc21 | inactive | 
O=c1c2c(-c3ccccc3)csc2ncn1/N=C/c1ccc(O)c([N+](=O)[O-])c1 | inactive | 
Cc1nn(C)c(Cl)c1CN1CCCC(CO)(Cc2cccc(Cl)c2)C1 (configuration not stated) | inconclusive: 100 µM [inhibitor, single point] | 

# Continuation:

SMILES,Potency,"activity, negative = inhibition"
Cc1cccc(-c2nnc(SCC(=O)c3ccc(O)cc3O)n2C)c1,"inconclusive: 100 µM [inhibitor, single point]",
O=C(NCCCN1CCOCC1)c1ccccc1,"inconclusive: 70.8 µM [inhibitor, single point]",
CS(=O)(=O)N1CCN(c2ccc(NC(=O)c3ccc([N+](=O)[O-])o3)cc2)CC1,"inconclusive: 100 µM [inhibitor, single point]",
Cc1ccc(S(=O)(=O)NNC(=S)Nc2cccc(C)c2C)cc1,"inconclusive: 126 µM [inhibitor, single point]",
CCN1CCc2c(sc3c2c(NCc2ccco2)nc2nnnn23)C1,inactive,
COc1ccc(N2CCN(C(=O)COC(=O)c3ccc(CSC)o3)CC2)cc1,inactive,
OCC1(Cc2ccccc2)CCN(C2CCN(c3ccc(F)c(F)c3)CC2)CC1,inactive,
Cc1ccc(S(=O)(=O)NCCC(=O)NCC(=O)Nc2c(C)cccc2C)cc1C,,inconclusive: 50.6% [activator]
COCC(CN1CCN(C2=NS(=O)(=O)c3ccccc32)CC1)OC(=O)c1ccc(OC)cc1 (configuration not stated),"inconclusive: 22.4 µM [inhibitor, single point]",
CC(=O)N1c2ccccc2C2(C)C(C1(C)C)C2(Cl)Cl (configuration not stated),inactive,
C/C(N=Nc1nc2ccccc2s1)=N\Nc1ccccc1O,"inconclusive: 100 µM [inhibitor, single point]",
O=c1[nH]cnc2scc(C3COc4ccccc4O3)c12 (configuration not stated),inactive,
CCC(NS(=O)(=O)c1ccc2c(c1)NC(=O)C(C)C(=O)N2)c1cccs1 (configuration not stated),"inconclusive: 28.2 µM [inhibitor, partial curve]",
O=C(Nc1ccc(Oc2ccsc2C(=O)O)cc1)c1ccccc1,"inconclusive: 100 µM [inhibitor, single point]",
COc1ccccc1NC(=O)/C=C1\NC(=O)CS1,"inconclusive: 126 µM [inhibitor, partial curve, poor fit]",
CC(C)(Oc1ccc(Cl)cc1)C(=O)Nc1cccc(S(=O)(=O)NC2=NCCC2)c1,"inconclusive: 141 µM [inhibitor, single point]",
CN(C)c1ncc(CN2CCC(CO)(CCCc3ccccc3)CC2)s1,"inconclusive: 224 µM [inhibitor, partial curve, poor fit]",
O=C(CCn1c(=O)[nH]c2ccsc2c1=O)N1CCc2ccccc2C1,inactive,
Cc1ccc(C)c(NC(=O)c2cc3ccccc3o2)c1,"inconclusive: 22.4 µM [inhibitor, single point]",
O=C(c1cccn2c(=O)c3ccc(Cl)cc3nc12)N1CCN(Cc2ccc3c(c2)OCO3)CC1,inactive,
O=C1c2ccccc2C(=O)c2c(O)c(O)cc(O)c21,inactive,
Cc1ccc(-c2oc3ccccc3c(=O)c2O)cc1,inactive,
COC(=O)C1=C(C)N(c2ccc(OC)cc2)C(C)=C(C(=O)OC)C1c1ccccc1,"inconclusive: 178 µM [inhibitor, single point]",
OC1CCCN(CC(O)COC(c2ccc(F)cc2)c2ccc(F)cc2)C1 (configuration not stated),"inconclusive: 89.1 µM [inhibitor, single point]",
